Measured values reported in publication PMC7862700.
The entries are a selection whose mix differs from that of the whole data set. For some of these results: At the low end of the ranking, values are background and their order means little.

target: T1, ELK1 (UniProt P19419); test: DAPPL (digital affinity profiling via proximity ligation, sequencing); settings: 10 mM Tris-HCl pH 7.5, 50 mM NaCl, 1 mM DTT, 4% glycerol, room temperature, 30 min; GST-TFs on glutathione beads, 16-mer random dsDNA library, 0.1% …; high values mean tight binding; double strand, one strand shown; scale: fold enrichment (6-mer frequency, TF over GST control)
T1 sequence: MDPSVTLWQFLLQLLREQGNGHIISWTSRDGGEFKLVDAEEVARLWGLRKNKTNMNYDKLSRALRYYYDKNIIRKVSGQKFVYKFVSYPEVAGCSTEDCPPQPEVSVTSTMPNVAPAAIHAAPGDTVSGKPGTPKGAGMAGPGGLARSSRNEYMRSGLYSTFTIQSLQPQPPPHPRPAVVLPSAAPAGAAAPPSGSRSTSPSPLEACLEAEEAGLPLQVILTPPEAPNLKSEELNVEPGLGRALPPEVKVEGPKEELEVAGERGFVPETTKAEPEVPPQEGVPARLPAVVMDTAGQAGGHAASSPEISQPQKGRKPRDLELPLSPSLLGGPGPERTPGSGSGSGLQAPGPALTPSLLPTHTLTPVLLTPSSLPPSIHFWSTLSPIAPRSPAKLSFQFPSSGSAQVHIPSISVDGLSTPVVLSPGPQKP

Sequence | binding signal
CAATGC | 1.23
TGTTGT | 1.15
GGTACT | 1.21
ATCTAT | 1.14
CTTCGT | 1.45
TTTTTC | 1.15
AAGGTT | 1.15
CGTACC | 1.15
ATAAAG | 1.01
ATATAA | 1.22
TAATCC | 1.26
AATTCG | 1.26
AGTCTC | 1.02
TACCTG | 1.21
ATCTTA | 1.07
CCGGTT | 2.1
TGCTAG | 1.08
CGTCGC | 1.2
AAACTA | 1.23

Sequence | binding signal
AGCCTA | 1.05
TCGCCG | 1.24
CGAACA | 1.08
ACCTTA | 1.24
AACTCA | 1.27
AAGATT | 1.17
GGAACT | 1.8
TTGTGC | 1.25
CTCCAC | 1.41
CTCGAA | 1.12
AATCAC | 1.08
CGGCCT | 1.15
AGCACA | 1.01
CTTAGC | 1.17
GACATT | 1.17
CTACGT | 1.23
CACTCC | 1.41
ATTCCT | 1.37

Two entries from above, as comma-separated lines.
Sequence,binding signal
CGTCGC,1.2
AAACTA,1.23

target: T2, ELK3 (UniProt P41970); test: as above; settings: 10 mM Tris-HCl pH 7.5, 50 mM NaCl, 1 mM DTT, 4% glycerol, room temperature, 30 min; GST-TFs on glutathione beads, 16-mer random dsDNA library, 0.1% …; high values mean tight binding; double strand, one strand shown; scale: fold enrichment (6-mer frequency, TF over GST control)
T2 sequence: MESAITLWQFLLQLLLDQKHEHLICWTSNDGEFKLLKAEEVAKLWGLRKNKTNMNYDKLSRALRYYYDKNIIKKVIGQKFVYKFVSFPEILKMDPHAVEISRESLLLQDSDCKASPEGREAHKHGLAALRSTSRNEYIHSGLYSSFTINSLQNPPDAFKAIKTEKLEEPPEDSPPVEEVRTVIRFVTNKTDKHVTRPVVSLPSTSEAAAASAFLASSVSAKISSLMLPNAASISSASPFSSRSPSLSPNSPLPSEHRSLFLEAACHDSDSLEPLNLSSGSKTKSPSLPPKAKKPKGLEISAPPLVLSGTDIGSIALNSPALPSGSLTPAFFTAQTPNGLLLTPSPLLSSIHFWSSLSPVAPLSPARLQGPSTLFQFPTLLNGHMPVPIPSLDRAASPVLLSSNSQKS

Sequence | binding signal
TGCCTC | 1.27
GAAACA | 1.38
AGGACC | 1.15

target: T3, SPIC (UniProt Q8N5J4); test: as above; settings: 10 mM Tris-HCl pH 7.5, 50 mM NaCl, 1 mM DTT, 4% glycerol, room temperature, 30 min; GST-TFs on glutathione beads, 16-mer random dsDNA library, 0.1% …; high values mean tight binding; double strand, one strand shown; scale: fold enrichment (6-mer frequency, TF over GST control)
T3 sequence: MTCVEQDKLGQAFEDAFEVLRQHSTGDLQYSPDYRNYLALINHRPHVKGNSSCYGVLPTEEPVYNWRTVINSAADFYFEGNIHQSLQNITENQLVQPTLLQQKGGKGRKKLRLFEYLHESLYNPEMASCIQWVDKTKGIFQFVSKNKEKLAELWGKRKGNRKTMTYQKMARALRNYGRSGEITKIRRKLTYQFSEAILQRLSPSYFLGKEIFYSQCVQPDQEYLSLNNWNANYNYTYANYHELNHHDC

Sequence | binding signal
TGCCTC | 1.4
GAAACA | 1.38
AGGACC | 0.843
